{"source": "PubChem BioAssay AID1259254 (NCATS, 2017)", "aim": "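Genome-wide screen for genes that prevent DNA re-replication in cancer cells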 (primary screen)", "system": "human HCT116 colorectal cancer cells", "knock-down reagent": "single siRNA against human genes", "time to read-out": "3 days", "measured": "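Nuclei stained with Hoechst and imaged; cell-cycle phase assigned by DNA content; G2 share scaled per plate, non-targeting siRNA 0%, GMNN siRNA 100%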", "direction": "G2 robust z-score: higher = more G2 cells, more excess DNA replication", "active means": "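Active siRNAs have a G2 robust z of 5 or more median absolute deviations over the median, which in these data means about 38% or higher of GMNN control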", "note": "The whole screen tested about 59,000 reagents; below is a part drawn at random. About 1,550 of them (2.6%) were called active. 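G2 share is only a proxy for re-replication; each gene was hit by three separate siRNAs, and active genes were retested.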 Entries without a mark were called inactive. The numbers tell different reagents against one gene apart. Further read-outs or replicates are left out here. Not given: the amount of reagent."}
{"Gene":"PRPF40B","siRNA no.":1,"G2 robust z-score":1.35}
{"Gene":"PRPF40B","siRNA no.":2,"G2 robust z-score":2.51}
{"Gene":"PRPF40B","siRNA no.":3,"G2 robust z-score":-0.325}
{"Gene":"TPD52L2","siRNA no.":1,"G2 robust z-score":1.52}
{"Gene":"TPD52L2","siRNA no.":2,"G2 robust z-score":-0.0238}
{"Gene":"TPD52L2","siRNA no.":3,"G2 robust z-score":-0.727}
{"Gene":"RAD51AP2","siRNA no.":1,"G2 robust z-score":-0.342}
{"Gene":"RAD51AP2","siRNA no.":2,"G2 robust z-score":"5.34 (active)"}
{"Gene":"RAD51AP2","siRNA no.":3,"G2 robust z-score":0.218}
{"Gene":"CIMAP1C","siRNA no.":1,"G2 robust z-score":-0.397}
{"Gene":"CIMAP1C","siRNA no.":2,"G2 robust z-score":-0.803}
{"Gene":"CIMAP1C","siRNA no.":3,"G2 robust z-score":0.251}
{"Gene":"OLIG2","siRNA no.":1,"G2 robust z-score":-0.132}
{"Gene":"OLIG2","siRNA no.":2,"G2 robust z-score":-0.189}
{"Gene":"OLIG2","siRNA no.":3,"G2 robust z-score":-0.644}
{"Gene":"C1GALT1C1L","siRNA no.":1,"G2 robust z-score":3.18}
{"Gene":"C1GALT1C1L","siRNA no.":2,"G2 robust z-score":-0.549}
{"Gene":"C1GALT1C1L","siRNA no.":3,"G2 robust z-score":0.0671}

Copied from the list:
Under “G2 robust z-score”, PRPF40B #2 shows 2.51
C1GALT1C1L #2, G2 robust z-score → -0.549
